PubChem BioAssay AID1259425 | University of Nebraska Medical Center, 2018

Assay: 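Seek colon cancer weak points whose silencing resembles KSR1 loss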 (primary screen)
System: HCT116 human colon cancer cells
Reagents: siRNA pool against human genes, 50 nM siRNA
Measured: 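mRNA of six signature genes measured together by branched-DNA assay after 50 nM siRNA pool, blank removed, divided by geometric mean of two housekeeping genes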
Direction: BNIP3L mRNA: higher = more BNIP3L transcript after knockdown
The deposit covers about 14,000 reagents; this is a part drawn at random. Not all columns of the deposit are shown. Reagent sequences are not shown. The record does not give: the time to read-out.

PRKAR1B: BNIP3L mRNA, set 1 = 0.0668
ABI1: BNIP3L mRNA, set 1 = 0.221
BPIFA1: BNIP3L mRNA, set 1 = 0.0864
NOC4L: BNIP3L mRNA, set 1 = 0.136
ANXA3: BNIP3L mRNA, set 1 = 0.0827
TRAF2: BNIP3L mRNA, set 1 = 0.135
OGFR: BNIP3L mRNA, set 1 = 0.084
SLC35E1: BNIP3L mRNA, set 1 = 0.0933
ATXN8OS: BNIP3L mRNA, set 1 = 0.0687
XRN1: BNIP3L mRNA, set 1 = 0.234
SHISAL1: BNIP3L mRNA, set 1 = 0.353
SFN: BNIP3L mRNA, set 1 = 0.0484
CELP: BNIP3L mRNA, set 1 = 0.0646
RSRC2: BNIP3L mRNA, set 1 = 0.105
PAXIP1: BNIP3L mRNA, set 1 = 0.122
MAP3K12: BNIP3L mRNA, set 1 = 0.108
ID1: BNIP3L mRNA, set 1 = 0.132
ALOX12B: BNIP3L mRNA, set 1 = 0.0872
CARD8: BNIP3L mRNA, set 1 = 0.0564
CANT1: BNIP3L mRNA, set 1 = 0.146
SUSD4: BNIP3L mRNA, set 1 = 0.116
RADX: BNIP3L mRNA, set 1 = 0.128
PTPMT1: BNIP3L mRNA, set 1 = 0.0858
EIF2AK2: BNIP3L mRNA, set 1 = 0.119
KATNBL1: BNIP3L mRNA, set 1 = 0.174
RPL28: BNIP3L mRNA, set 1 = 0.309
TRAF4: BNIP3L mRNA, set 1 = 0.0734
ARHGAP42: BNIP3L mRNA, set 1 = 0.0818
PNMA6A: BNIP3L mRNA, set 1 = 0.394
ZFP36: BNIP3L mRNA, set 1 = 0.0838
CALCR: BNIP3L mRNA, set 1 = 0.129
NCF2: BNIP3L mRNA, set 1 = 0.146
DNAJC28: BNIP3L mRNA, set 1 = 0.075
CDH7: BNIP3L mRNA, set 1 = 0.143
SLC2A9: BNIP3L mRNA, set 1 = 0.156
FBN1: BNIP3L mRNA, set 1 = 0.0843

Look-ups from the entries so far.
ABI1, BNIP3L mRNA, set 1 → 0.221
Under “BNIP3L mRNA, set 1”, EIF2AK2 reads 0.119
For “BNIP3L mRNA, set 1”, MAP3K12 is entered as 0.108
For “BNIP3L mRNA, set 1”, RPL28 is entered as 0.309
